No constants are given. Whether binding was seen depends on the method and setting. For some of these results: Binding can be weak; no strength is given. For some of these results: Sequences can lack the tags named with a protein. One block for each molecule: values may come before it.
Assays:
[1] = target: YidC1 C-terminal tail (two-hybrid fusion) (Streptococcus mutans) (UniProt Q8DVX3); assay: two-hybrid; bacterial two-hybrid (BACTH): T25 (pKT25) and T18 (pUT18C) fusions cotransformed in E. coli cya mutant BTH101; blue colour on LB agar with X-gal and 0.5 mM IPTG, 48 h at 30°C
[2] = target: YidC2 C-terminal tail (two-hybrid fusion) (Streptococcus mutans) (UniProt Q8DSP8); assay: as above
[3] = target: T1, T25-YidC2 (full-length YidC2, two-hybrid fusion) (Streptococcus mutans) (UniProt Q8DSP8); assay: as above
T1 sequence: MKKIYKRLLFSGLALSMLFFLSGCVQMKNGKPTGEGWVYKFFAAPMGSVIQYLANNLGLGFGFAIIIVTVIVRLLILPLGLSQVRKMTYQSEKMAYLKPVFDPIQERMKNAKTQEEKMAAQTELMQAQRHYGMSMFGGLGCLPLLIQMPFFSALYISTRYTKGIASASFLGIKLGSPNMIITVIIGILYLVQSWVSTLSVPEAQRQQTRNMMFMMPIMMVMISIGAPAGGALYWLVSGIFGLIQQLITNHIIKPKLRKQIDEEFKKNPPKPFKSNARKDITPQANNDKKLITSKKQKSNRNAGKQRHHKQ

By UniProt entry, the sequences of proteins in these tests, tags left out.
UniProt O06942: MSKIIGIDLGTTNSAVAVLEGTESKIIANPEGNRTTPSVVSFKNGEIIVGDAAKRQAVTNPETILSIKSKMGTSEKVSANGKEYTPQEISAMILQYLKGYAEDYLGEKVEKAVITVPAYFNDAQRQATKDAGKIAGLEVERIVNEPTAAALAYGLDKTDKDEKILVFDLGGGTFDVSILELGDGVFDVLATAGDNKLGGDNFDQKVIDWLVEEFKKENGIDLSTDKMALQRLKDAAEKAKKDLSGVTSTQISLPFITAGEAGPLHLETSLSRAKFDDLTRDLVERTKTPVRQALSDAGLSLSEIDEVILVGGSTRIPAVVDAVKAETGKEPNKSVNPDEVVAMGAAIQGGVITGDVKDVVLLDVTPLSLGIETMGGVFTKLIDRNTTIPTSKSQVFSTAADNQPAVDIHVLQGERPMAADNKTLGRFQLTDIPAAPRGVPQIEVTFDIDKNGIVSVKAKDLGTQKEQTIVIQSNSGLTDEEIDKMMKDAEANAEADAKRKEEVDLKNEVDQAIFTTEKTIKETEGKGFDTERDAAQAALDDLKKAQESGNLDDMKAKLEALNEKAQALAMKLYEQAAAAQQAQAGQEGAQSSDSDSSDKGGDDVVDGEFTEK

[4] = target: T2, T25-YidC1 (full-length YidC1, two-hybrid fusion) (Streptococcus mutans) (UniProt Q8DVX3); assay: two-hybrid
T2 sequence: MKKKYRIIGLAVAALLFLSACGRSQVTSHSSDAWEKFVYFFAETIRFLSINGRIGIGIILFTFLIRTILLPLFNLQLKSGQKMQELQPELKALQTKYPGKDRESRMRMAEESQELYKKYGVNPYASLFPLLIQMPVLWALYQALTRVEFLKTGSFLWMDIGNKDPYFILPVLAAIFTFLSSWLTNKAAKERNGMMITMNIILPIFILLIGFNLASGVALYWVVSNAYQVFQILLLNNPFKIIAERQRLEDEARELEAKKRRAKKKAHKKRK

[5] = target: T3, Ffh (two-hybrid fusion) (Streptococcus mutans) (UniProt Q54431); assay: two-hybrid
T3 sequence: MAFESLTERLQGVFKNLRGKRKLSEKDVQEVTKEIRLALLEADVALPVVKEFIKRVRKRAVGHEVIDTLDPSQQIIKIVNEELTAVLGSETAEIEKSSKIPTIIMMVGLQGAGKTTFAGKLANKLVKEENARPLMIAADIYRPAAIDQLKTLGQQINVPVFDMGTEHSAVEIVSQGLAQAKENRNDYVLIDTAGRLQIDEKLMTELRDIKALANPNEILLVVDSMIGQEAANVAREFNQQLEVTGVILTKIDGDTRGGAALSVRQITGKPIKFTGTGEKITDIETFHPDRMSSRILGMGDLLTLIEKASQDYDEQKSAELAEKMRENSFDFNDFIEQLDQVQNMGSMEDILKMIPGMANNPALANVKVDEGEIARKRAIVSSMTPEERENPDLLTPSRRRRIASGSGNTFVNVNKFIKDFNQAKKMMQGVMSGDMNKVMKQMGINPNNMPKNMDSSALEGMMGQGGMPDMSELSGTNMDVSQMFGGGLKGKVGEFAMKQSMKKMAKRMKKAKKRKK

[6] = target: YidC1 C-terminal tail (two-hybrid fusion) (Streptococcus mutans) (UniProt Q8DVX3); assay: two-hybrid
[7] = target: YidC2 C-terminal tail (two-hybrid fusion) (Streptococcus mutans) (UniProt Q8DSP8); assay: two-hybrid
[8] = target: T2, T25-YidC1 (full-length YidC1, two-hybrid fusion) (Streptococcus mutans); assay: two-hybrid; bacterial two-hybrid (BACTH): T25 (pKT25) and T18 (pUT18C) fusions cotransformed in E. coli cya mutant BTH101; blue colour on LB agar with X-gal and 0.5 mM IPTG, 48 h at 30°C
[9] = target: YidC1 C-terminal tail (two-hybrid fusion) (Streptococcus mutans) (UniProt Q8DVX3); assay: as above; remark: listed apart in the source
[10] = target: YidC2 C-terminal tail (two-hybrid fusion) (Streptococcus mutans) (UniProt Q8DSP8); assay: as above; remark: listed apart in the source
[11] = target: YidC2 C-terminal tail (two-hybrid fusion) (Streptococcus mutans), Q8DSP8; assay: as above; details: remark: other sources report otherwise

binding [1]: binds
binding [2]: binds
Molecule: DnaK (two-hybrid fusion) (from UniProt O06942 1-612)

binding [3]: binds
binding [4]: binds
Molecule: RopA (trigger factor) (two-hybrid fusion) (Streptococcus mutans)

Molecule: SecG (two-hybrid fusion) (Streptococcus mutans)
binding [5]: binds

Molecule: T18C-LemA (two-hybrid fusion) (from UniProt Q93D94 1-186)
binding [6]: binds
binding [7]: binds

Molecule: YajC (two-hybrid fusion) (from UniProt Q8DSJ6)
binding [5]: binds

binding [3]: no binding
binding [8]: no binding
Molecule: ribosomal protein L2 (two-hybrid fusion) (Streptococcus mutans)

binding [9]: binds
binding [10]: binds
B1: FtsY (two-hybrid fusion) (protein, UniProt Q8CWX8 1-498)
chain: MGLFNRLFGKKRQEEKSTTDSIEEAAEQEVTQEKPALLAETAETAESQQSVYEKDVTESQAEQVSDARIIEDGQNSKEPAASGHSVQEHKQQPVQHQQEVFHSENSVAAVQNNTETMPSQQKKDEKPNQSPDFMAEYYARKAELAQKVESQKPAETAEQESQTTLSDQKETETAVNQSEEEASSQIAESVESEEEKYNRSLKKTRTGFGARLNAFLANFRNVDEEFFEDLEEMLILSDVGVQVASTLTEDLRYEAKLEKAKKPEALRRVIIEKLVDIYDKDGQFNEKINFQNDLTVMLFVGVNGVGKTTSIGKLAYKYKHQGKKVMLVAADTFRAGAVAQLAEWGRRVDVPVVTGPKNADPASVVYDGVERAVAADVDILMIDTAGRLQNKDNLMAELEKIGRVVKRVIPDAPHETLLTLDASTGQNALVQAKEFSKITPLTGLILTKIDGTAKGGVVLAIRQELAIPVKFIGFGEKIDDIGEFHSEDFMRGLLEGLL

binding [11]: no binding
B2: Ffh (two-hybrid fusion), Q54431 1-516 (protein)
chain: T3 sequence

Source: publication PMC8546722
